# Test results from the supplement of paper PMC10032668.
# The chains behind the UniProt entries cited, without tags or fusion partners.
# CAPZB, P47756, UniProt P47756, whole entry: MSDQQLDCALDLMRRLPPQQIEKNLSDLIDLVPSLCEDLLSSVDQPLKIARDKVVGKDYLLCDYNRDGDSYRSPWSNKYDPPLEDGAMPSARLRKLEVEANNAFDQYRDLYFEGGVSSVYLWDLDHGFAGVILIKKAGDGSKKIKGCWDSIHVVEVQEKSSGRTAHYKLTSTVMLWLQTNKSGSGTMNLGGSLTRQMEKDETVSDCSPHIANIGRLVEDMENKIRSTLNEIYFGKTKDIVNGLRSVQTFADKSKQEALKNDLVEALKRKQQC
# INTS12, Q96CB8, UniProt Q96CB8, whole entry: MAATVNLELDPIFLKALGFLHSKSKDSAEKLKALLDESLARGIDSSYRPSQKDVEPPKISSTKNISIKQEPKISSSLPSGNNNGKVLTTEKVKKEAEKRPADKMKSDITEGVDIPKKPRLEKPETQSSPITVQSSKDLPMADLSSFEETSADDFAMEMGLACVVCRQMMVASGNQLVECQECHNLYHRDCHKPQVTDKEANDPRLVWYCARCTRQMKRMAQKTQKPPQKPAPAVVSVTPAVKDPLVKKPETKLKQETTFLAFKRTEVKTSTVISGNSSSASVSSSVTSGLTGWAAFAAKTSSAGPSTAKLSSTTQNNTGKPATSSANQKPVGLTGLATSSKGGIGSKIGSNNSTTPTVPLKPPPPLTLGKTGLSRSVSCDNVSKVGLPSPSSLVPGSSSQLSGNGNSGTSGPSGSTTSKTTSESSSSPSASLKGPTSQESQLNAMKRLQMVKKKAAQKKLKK
# PHAX, Q9H814, UniProt Q9H814, whole entry: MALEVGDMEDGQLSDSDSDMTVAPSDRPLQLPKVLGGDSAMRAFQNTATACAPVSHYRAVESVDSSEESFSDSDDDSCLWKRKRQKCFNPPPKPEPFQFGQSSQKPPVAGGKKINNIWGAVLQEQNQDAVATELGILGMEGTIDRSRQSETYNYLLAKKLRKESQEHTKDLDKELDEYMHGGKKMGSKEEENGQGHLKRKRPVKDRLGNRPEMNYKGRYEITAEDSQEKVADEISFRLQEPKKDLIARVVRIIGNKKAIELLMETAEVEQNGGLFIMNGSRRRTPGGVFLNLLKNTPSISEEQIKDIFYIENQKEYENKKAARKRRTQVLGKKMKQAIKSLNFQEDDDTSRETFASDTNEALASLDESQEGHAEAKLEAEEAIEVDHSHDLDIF
# RBBP4, Q09028, UniProt Q09028, whole entry: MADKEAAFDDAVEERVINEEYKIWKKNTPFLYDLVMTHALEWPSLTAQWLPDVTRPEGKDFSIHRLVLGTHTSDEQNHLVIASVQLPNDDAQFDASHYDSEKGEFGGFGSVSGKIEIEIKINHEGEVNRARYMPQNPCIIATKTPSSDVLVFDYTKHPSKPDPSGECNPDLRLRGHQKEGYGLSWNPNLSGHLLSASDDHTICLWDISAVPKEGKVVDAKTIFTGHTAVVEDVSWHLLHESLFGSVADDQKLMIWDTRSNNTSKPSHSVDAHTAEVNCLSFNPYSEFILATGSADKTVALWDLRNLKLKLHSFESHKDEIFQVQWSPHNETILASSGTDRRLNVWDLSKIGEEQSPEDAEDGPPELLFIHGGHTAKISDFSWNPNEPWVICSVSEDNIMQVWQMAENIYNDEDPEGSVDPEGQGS
# SMN2, Q16637, UniProt Q16637, whole entry: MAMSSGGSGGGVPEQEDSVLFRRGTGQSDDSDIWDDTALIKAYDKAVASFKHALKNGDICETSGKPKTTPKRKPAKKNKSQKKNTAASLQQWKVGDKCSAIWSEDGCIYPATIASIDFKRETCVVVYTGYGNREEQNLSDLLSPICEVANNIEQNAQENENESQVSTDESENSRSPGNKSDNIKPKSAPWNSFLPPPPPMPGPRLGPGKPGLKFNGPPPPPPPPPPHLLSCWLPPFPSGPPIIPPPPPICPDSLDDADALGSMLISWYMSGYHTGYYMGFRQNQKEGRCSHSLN
# TELO2, Q9Y4R8, UniProt Q9Y4R8, whole entry: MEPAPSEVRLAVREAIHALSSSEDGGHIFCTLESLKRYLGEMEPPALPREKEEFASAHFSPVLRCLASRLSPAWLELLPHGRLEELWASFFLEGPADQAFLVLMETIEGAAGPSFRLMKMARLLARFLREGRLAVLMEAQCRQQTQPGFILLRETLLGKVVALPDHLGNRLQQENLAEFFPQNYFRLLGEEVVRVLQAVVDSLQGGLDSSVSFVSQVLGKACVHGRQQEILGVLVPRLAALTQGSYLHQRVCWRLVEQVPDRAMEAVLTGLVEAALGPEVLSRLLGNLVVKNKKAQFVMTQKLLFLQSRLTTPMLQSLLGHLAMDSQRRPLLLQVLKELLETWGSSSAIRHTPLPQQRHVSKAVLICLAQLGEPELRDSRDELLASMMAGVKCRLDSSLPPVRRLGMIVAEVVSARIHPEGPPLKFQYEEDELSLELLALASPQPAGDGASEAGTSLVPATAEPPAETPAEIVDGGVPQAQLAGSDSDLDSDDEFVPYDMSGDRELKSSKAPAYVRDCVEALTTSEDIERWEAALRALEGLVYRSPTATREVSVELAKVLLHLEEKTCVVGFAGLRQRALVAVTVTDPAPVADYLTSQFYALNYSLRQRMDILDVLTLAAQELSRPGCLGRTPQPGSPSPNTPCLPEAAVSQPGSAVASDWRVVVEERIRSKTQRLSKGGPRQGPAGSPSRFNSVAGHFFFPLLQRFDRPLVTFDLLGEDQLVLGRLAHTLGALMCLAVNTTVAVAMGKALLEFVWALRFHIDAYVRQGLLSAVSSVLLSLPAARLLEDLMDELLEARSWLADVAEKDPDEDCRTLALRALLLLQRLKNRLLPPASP
# CAMP, P49913, UniProt P49913, whole entry: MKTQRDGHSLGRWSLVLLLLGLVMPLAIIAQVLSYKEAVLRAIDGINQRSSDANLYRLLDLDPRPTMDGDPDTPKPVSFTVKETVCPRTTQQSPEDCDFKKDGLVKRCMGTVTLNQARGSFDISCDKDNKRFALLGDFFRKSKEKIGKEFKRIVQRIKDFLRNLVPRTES
# CHTF18, Q8WVB6, UniProt Q8WVB6, whole entry: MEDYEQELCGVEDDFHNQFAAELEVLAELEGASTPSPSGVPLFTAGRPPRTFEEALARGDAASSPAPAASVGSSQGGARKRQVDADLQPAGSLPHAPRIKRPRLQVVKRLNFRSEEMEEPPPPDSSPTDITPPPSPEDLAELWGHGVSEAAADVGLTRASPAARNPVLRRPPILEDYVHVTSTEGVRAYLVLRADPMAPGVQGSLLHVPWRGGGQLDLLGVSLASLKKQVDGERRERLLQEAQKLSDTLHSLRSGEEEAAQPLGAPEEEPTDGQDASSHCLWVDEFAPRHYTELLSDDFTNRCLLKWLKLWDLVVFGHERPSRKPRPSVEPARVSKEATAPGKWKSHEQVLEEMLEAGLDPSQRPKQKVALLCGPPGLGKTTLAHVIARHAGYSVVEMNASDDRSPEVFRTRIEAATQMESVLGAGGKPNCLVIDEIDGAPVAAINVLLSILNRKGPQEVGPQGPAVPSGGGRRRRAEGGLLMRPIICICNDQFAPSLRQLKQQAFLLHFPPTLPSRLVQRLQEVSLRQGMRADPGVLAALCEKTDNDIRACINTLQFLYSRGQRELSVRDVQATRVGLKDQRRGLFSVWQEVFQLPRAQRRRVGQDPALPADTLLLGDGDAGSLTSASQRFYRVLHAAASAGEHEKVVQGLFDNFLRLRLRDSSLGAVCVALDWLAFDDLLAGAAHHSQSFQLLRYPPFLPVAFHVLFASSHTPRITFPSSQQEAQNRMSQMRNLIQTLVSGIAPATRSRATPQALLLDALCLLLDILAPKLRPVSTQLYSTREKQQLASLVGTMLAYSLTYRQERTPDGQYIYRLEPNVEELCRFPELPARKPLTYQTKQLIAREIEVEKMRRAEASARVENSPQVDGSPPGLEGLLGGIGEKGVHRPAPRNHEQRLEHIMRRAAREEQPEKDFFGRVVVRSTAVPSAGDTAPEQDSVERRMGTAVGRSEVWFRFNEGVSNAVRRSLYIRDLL
# EIF3A, Q14152, UniProt Q14152, whole entry: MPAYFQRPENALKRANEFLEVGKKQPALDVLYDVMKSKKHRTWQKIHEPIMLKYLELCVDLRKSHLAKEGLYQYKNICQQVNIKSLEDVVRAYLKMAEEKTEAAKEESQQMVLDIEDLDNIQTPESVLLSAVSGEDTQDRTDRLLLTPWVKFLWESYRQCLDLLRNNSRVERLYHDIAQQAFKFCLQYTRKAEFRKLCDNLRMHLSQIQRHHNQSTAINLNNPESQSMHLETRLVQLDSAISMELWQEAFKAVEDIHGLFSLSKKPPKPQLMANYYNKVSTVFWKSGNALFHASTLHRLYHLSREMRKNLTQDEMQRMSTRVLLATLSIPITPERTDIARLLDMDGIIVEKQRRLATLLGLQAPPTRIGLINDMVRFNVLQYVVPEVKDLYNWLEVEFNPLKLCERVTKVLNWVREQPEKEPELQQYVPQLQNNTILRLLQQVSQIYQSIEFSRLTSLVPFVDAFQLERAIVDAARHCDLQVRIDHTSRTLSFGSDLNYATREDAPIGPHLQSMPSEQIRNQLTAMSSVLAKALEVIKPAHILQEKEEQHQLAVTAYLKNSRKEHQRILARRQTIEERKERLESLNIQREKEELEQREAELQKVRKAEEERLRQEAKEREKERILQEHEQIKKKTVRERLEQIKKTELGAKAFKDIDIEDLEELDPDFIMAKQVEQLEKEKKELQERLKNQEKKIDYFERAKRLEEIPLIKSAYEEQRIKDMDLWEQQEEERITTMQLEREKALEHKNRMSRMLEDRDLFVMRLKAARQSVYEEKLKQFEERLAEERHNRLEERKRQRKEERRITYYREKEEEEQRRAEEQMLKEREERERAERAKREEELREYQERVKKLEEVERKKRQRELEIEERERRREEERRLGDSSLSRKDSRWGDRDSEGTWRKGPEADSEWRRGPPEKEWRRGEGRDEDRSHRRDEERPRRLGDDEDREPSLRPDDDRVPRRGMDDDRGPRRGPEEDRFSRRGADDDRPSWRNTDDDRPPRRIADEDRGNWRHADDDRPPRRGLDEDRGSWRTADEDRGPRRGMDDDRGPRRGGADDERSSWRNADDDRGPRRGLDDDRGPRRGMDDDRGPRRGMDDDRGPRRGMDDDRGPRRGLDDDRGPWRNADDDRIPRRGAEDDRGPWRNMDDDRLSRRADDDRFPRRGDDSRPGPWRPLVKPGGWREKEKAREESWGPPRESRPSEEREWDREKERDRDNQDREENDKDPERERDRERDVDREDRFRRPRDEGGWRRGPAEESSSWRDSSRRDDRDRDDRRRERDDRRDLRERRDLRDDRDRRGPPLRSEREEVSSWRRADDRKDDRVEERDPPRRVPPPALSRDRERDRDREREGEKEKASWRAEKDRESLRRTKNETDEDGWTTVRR
# LARP4B, Q92615, UniProt Q92615, whole entry: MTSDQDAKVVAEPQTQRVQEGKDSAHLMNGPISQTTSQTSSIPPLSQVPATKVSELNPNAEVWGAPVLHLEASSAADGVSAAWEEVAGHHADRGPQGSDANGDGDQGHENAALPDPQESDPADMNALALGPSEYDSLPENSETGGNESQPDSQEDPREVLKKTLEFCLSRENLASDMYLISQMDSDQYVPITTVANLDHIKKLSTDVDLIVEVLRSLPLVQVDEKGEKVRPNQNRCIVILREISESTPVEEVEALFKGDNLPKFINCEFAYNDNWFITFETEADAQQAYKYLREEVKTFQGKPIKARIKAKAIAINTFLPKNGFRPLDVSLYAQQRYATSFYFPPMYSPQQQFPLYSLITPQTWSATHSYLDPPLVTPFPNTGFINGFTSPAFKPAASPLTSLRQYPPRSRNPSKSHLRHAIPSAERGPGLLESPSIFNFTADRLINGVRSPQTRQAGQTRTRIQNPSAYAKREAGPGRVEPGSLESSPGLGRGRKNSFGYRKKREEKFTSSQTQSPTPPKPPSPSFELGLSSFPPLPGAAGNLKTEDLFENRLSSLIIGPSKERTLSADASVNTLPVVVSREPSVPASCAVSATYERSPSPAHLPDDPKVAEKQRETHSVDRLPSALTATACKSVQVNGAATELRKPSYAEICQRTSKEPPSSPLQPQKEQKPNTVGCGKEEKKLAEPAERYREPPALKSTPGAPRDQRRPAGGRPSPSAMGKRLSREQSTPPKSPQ
# TPM4, P67936, UniProt P67936, whole entry: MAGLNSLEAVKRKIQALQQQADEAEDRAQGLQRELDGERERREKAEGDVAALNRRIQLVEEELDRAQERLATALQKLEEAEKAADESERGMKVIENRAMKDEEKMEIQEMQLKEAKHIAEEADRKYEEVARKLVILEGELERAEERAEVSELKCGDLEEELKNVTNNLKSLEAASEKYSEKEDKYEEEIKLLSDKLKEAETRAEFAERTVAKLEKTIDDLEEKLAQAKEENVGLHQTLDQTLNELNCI
# The list shows a part of the results. The list holds hits alone, and they repeat only in part.
# B1: LINC01560 (peptide)
# chain: GIDYSKKEFRGTAEN
# B2: THAP7 (peptide)
# chain: STDFPRRTTRGEACG
# B3: RP1-206D15.6 (peptide)
# chain: LLRDLVTEARQRFHL
# Assays:
# Test in all cases: PRISMA enrichment of interactor (LFQ) in peptide spot vs all other peptide spots (log2 fold change); higher = stronger / more specific binding of the interactor to the peptide
# CAPZB, P47756 = target: CAPZB, P47756
# Description: (§1)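 PRISMA: 15-aa overlapping tiles (offset 8 aa) of 60 microproteins, plus SOS1/GLUT1 control peptides, were spot-synthesized on cellulose membranes in triplicate. Membranes were incubated with benzonase-treated HEK293T lysate, and bound proteins were identified by LC-MS/MS with LFQ. Enrichment is the log2 fold change of each protein in one spot versus all other spots. Only interactors passing the significance cutoff are listed.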
# DCAF7, P61962 = target: DCAF7, P61962
# Description: as §1
# EARS2, Q5JPH6 = target: EARS2, Q5JPH6
# Description: as §1
# FAM98A, Q8NCA5 = target: FAM98A, Q8NCA5
# Description: as §1
# INTS12, Q96CB8 = target: INTS12, Q96CB8
# Description: as §1
# PHAX, Q9H814 = target: PHAX, Q9H814
# Description: as §1
# PHF6, Q8IWS0 = target: PHF6, Q8IWS0
# Description: as §1
# PPIL2, Q13356 = target: PPIL2, Q13356
# Description: as §1
# PRKCSH, P14314 = target: PRKCSH, P14314
# Description: as §1
# RANBP2, P49792 = target: RANBP2, P49792
# Description: as §1
# RBBP4, Q09028 = target: RBBP4, Q09028
# Description: as §1
# RNF2, Q99496 = target: RNF2, Q99496
# Description: as §1
# SAP18, O00422 = target: SAP18, O00422
# Description: as §1
# SMN2, Q16637 = target: SMN2, Q16637
# Description: as §1
# STRBP, Q96SI9 = target: STRBP, Q96SI9
# Description: as §1
# TELO2, Q9Y4R8 = target: TELO2, Q9Y4R8
# Description: as §1
# TIAL1, Q01085 = target: TIAL1, Q01085
# Description: as §1
# USP15, Q9Y4E8 = target: USP15, Q9Y4E8
# Description: as §1
# VARS, P26640 = target: VARS, P26640
# Description: as §1
# ZNF512, Q96ME7 = target: ZNF512, Q96ME7
# Description: as §1
# CAMP, P49913 = target: CAMP, P49913
# Description: as §1
# CDC73, Q6P1J9 = target: CDC73, Q6P1J9
# Description: as §1
# CHTF18, Q8WVB6 = target: CHTF18, Q8WVB6
# Description: as §1
# CPS1, P31327 = target: CPS1, P31327
# Description: as §1
# DHX15, O43143 = target: DHX15, O43143
# Description: as §1
# FANCD2, Q9BXW9 = target: FANCD2, Q9BXW9
# Description: as §1
# [1] = substrate: PNN, Q9H307
# Description: as §1
# RBM7, Q9Y580 = target: RBM7, Q9Y580
# Description: as §1
# TRMT5, Q32P41 = target: TRMT5, Q32P41
# Description: as §1
# CCT3, P49368 = target: CCT3, P49368
# Description: as §1
# CEBPZ, Q03701 = target: CEBPZ, Q03701
# Description: as §1
# CHCHD3, Q9NX63 = target: CHCHD3, Q9NX63
# Description: as §1
# CHCHD6, Q9BRQ6 = target: CHCHD6, Q9BRQ6
# Description: as §1
# EIF3A, Q14152 = target: EIF3A, Q14152
# Description: as §1
# EXOSC10, Q01780 = target: EXOSC10, Q01780
# Description: as §1
# FXR1, P51114 = target: FXR1, P51114
# Description: as §1
# GPD1L, Q8N335 = target: GPD1L, Q8N335
# Description: as §1
# LARP4B, Q92615 = target: LARP4B, Q92615
# Description: as §1
# LMNA, P02545 = target: LMNA, P02545
# Description: as §1
# LYPLAL1, Q5VWZ2 = target: LYPLAL1, Q5VWZ2
# Description: as §1
# MPST, P25325 = target: MPST, P25325
# Description: as §1
# MRPS6, P82932 = target: MRPS6, P82932
# Description: as §1
# ORC4, O43929 = target: ORC4, O43929
# Description: as §1
# PAF1, Q8N7H5 = target: PAF1, Q8N7H5
# Description: as §1
# PAICS, P22234 = target: PAICS, P22234
# Description: as §1
# RAB11A, P62491 = target: RAB11A, P62491
# Description: as §1
# SLC37A4, O43826 = target: SLC37A4, O43826
# Description: as §1
# STAT1, P42224 = target: STAT1, P42224
# Description: as §1
# TAGLN2, P37802 = target: TAGLN2, P37802
# Description: as §1
# TKT, P29401 = target: TKT, P29401
# Description: as §1
# TMED1, Q13445 = target: TMED1, Q13445
# Description: as §1
# TPM4, P67936 = target: TPM4, P67936
# Description: as §1
# UMPS, P11172 = target: UMPS, P11172
# Description: as §1
# UTP20, O75691 = target: UTP20, O75691
# Description: as §1
binder,measurement,setting,value
B1,PRISMA enrichment of interactor (log2),"CAPZB, P47756",4.7
same,PRISMA enrichment of interactor (log2),"DCAF7, P61962",8.69
same,PRISMA enrichment of interactor (log2),"EARS2, Q5JPH6",7.35
same,PRISMA enrichment of interactor (log2),"FAM98A, Q8NCA5",5.01
same,PRISMA enrichment of interactor (log2),"INTS12, Q96CB8",4.07
same,PRISMA enrichment of interactor (log2),"PHAX, Q9H814",4.74
same,PRISMA enrichment of interactor (log2),"PHF6, Q8IWS0",5.75
same,PRISMA enrichment of interactor (log2),"PPIL2, Q13356",4.75
same,PRISMA enrichment of interactor (log2),"PRKCSH, P14314",4.71
same,PRISMA enrichment of interactor (log2),"RANBP2, P49792",7.36
same,PRISMA enrichment of interactor (log2),"RBBP4, Q09028",4.48
same,PRISMA enrichment of interactor (log2),"RNF2, Q99496",4.06
same,PRISMA enrichment of interactor (log2),"SAP18, O00422",6.87
same,PRISMA enrichment of interactor (log2),"SMN2, Q16637",8.68
same,PRISMA enrichment of interactor (log2),"STRBP, Q96SI9",7.17
same,PRISMA enrichment of interactor (log2),"TELO2, Q9Y4R8",5.08
same,PRISMA enrichment of interactor (log2),"TIAL1, Q01085",4.51
same,PRISMA enrichment of interactor (log2),"USP15, Q9Y4E8",3.98
same,PRISMA enrichment of interactor (log2),"VARS, P26640",4.35
same,PRISMA enrichment of interactor (log2),"ZNF512, Q96ME7",5.12
B2,PRISMA enrichment of interactor (log2),"CAMP, P49913",4.64
same,PRISMA enrichment of interactor (log2),"CDC73, Q6P1J9",5.55
same,PRISMA enrichment of interactor (log2),"CHTF18, Q8WVB6",4.61
same,PRISMA enrichment of interactor (log2),"CPS1, P31327",4.98
same,PRISMA enrichment of interactor (log2),"DHX15, O43143",7.8
same,PRISMA enrichment of interactor (log2),"FANCD2, Q9BXW9",4.29
same,PRISMA enrichment of interactor (log2),[1],5.83
same,PRISMA enrichment of interactor (log2),"RBM7, Q9Y580",7.31
same,PRISMA enrichment of interactor (log2),"TRMT5, Q32P41",4.91
B3,PRISMA enrichment of interactor (log2),"CAMP, P49913",6.6
same,PRISMA enrichment of interactor (log2),"CCT3, P49368",7.12
same,PRISMA enrichment of interactor (log2),"CEBPZ, Q03701",6.57
same,PRISMA enrichment of interactor (log2),"CHCHD3, Q9NX63",4.5
same,PRISMA enrichment of interactor (log2),"CHCHD6, Q9BRQ6",5.76
same,PRISMA enrichment of interactor (log2),"EARS2, Q5JPH6",7.27
same,PRISMA enrichment of interactor (log2),"EIF3A, Q14152",7.21
same,PRISMA enrichment of interactor (log2),"EXOSC10, Q01780",4.47
same,PRISMA enrichment of interactor (log2),"FXR1, P51114",6.72
same,PRISMA enrichment of interactor (log2),"GPD1L, Q8N335",4.57
same,PRISMA enrichment of interactor (log2),"LARP4B, Q92615",5.43
same,PRISMA enrichment of interactor (log2),"LMNA, P02545",4.14
same,PRISMA enrichment of interactor (log2),"LYPLAL1, Q5VWZ2",5
same,PRISMA enrichment of interactor (log2),"MPST, P25325",4.27
same,PRISMA enrichment of interactor (log2),"MRPS6, P82932",6.13
same,PRISMA enrichment of interactor (log2),"ORC4, O43929",5.74
same,PRISMA enrichment of interactor (log2),"PAF1, Q8N7H5",6.07
same,PRISMA enrichment of interactor (log2),"PAICS, P22234",8.22
same,PRISMA enrichment of interactor (log2),"RAB11A, P62491",4.84
same,PRISMA enrichment of interactor (log2),"SLC37A4, O43826",4.27
same,PRISMA enrichment of interactor (log2),"STAT1, P42224",4.75
same,PRISMA enrichment of interactor (log2),"TAGLN2, P37802",6.91
same,PRISMA enrichment of interactor (log2),"TKT, P29401",6.66
same,PRISMA enrichment of interactor (log2),"TMED1, Q13445",4.46
same,PRISMA enrichment of interactor (log2),"TPM4, P67936",7.72
same,PRISMA enrichment of interactor (log2),"UMPS, P11172",6.94
same,PRISMA enrichment of interactor (log2),"UTP20, O75691",4.18

# A stretch of the results above, for reference:
binder,measurement,setting,value
B1,PRISMA enrichment of interactor (log2),"PHAX, Q9H814",4.74
same,PRISMA enrichment of interactor (log2),"PHF6, Q8IWS0",5.75
same,PRISMA enrichment of interactor (log2),"PPIL2, Q13356",4.75
